Assay results as given in the supplement of paper PMC8612539.
Values after ≈ are worked out from the molar mass of the structure shown. The source gives many values for each of these; only a part stands here.

System: Escherichia coli
Test: minimum inhibitory concentration (MIC)
Protocol: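 Broth microdilution MIC (Sensititre BOPO7F bovine plate, CLSI methods) of 19 antimicrobials against field isolates of P. multocida, M. haemolytica, H. somni (deep nasopharyngeal swabs) and E. coli, Enterococcus spp. (rectal swabs) from weaned dairy heifers. Incubation 16-24 h at 35 C. MIC is the lowest concentration preventing visible growth. Values with <= or > lie at the tested range limits. Trimethoprim-sulfamethoxazole is given as the trimethoprim component of a 1:19 mixture.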

CCC[C@@H]1C[C@@H](C(=O)N[C@@H]([C@H]2O[C@H](SC)[C@H](O)[C@@H](O)[C@H]2O)[C@H](C)Cl)N(C)C1 [Clindamycin]
Details | minimum inhibitory concentration [µg/mL]
isolate (source animal id): 221 | > 16
isolate (source animal id): 222 | > 16
isolate (source animal id): 223 | > 16
isolate (source animal id): 224 | > 16
isolate (source animal id): 225 | > 16
isolate (source animal id): 226 | > 16
isolate (source animal id): 227 | > 16
isolate (source animal id): 228 | > 16
isolate (source animal id): 229 | > 16
isolate (source animal id): 230 | > 16
isolate (source animal id): 231 | > 16
isolate (source animal id): 232 | > 16
isolate (source animal id): 233 | > 16
isolate (source animal id): 234 | > 16
isolate (source animal id): 235 | > 16
isolate (source animal id): 236 | > 16
isolate (source animal id): 237 | > 16
isolate (source animal id): 238 | 16 (≈ 37.6 µM)
isolate (source animal id): 239 | > 16
isolate (source animal id): 240 | > 16
isolate (source animal id): 241 | > 16
isolate (source animal id): 242 | > 16
isolate (source animal id): 243 | > 16
isolate (source animal id): 244 | > 16
isolate (source animal id): 245 | > 16
isolate (source animal id): 246 | > 16
isolate (source animal id): 247 | > 16
isolate (source animal id): 248 | > 16
isolate (source animal id): 249 | > 16
isolate (source animal id): 250 | > 16
isolate (source animal id): 251 | > 16
isolate (source animal id): 252 | > 16
isolate (source animal id): 253 | > 16
isolate (source animal id): 254 | > 16
isolate (source animal id): 255 | > 16
isolate (source animal id): 256 | > 16
isolate (source animal id): 257 | > 16
isolate (source animal id): 258 | > 16
isolate (source animal id): 259 | > 16
isolate (source animal id): 260 | > 16
isolate (source animal id): 261 | > 16
isolate (source animal id): 262 | > 16
isolate (source animal id): 263 | > 16
isolate (source animal id): 264 | > 16
isolate (source animal id): 265 | > 16
isolate (source animal id): 266 | > 16
isolate (source animal id): 267 | > 16
isolate (source animal id): 268 | > 16
isolate (source animal id): 269 | > 16
isolate (source animal id): 270 | > 16
isolate (source animal id): 271 | > 16
isolate (source animal id): 272 | > 16
isolate (source animal id): 273 | > 16
isolate (source animal id): 274 | > 16
isolate (source animal id): 275 | > 16
isolate (source animal id): 276 | > 16
isolate (source animal id): 277 | > 16
isolate (source animal id): 278 | > 16
isolate (source animal id): 279 | > 16
isolate (source animal id): 280 | > 16
isolate (source animal id): 281 | > 16
isolate (source animal id): 282 | > 16
isolate (source animal id): 283 | > 16
isolate (source animal id): 284 | > 16
isolate (source animal id): 285 | > 16
isolate (source animal id): 286 | > 16
isolate (source animal id): 287 | > 16
isolate (source animal id): 288 | > 16
isolate (source animal id): 289 | > 16
isolate (source animal id): 290 | > 16
isolate (source animal id): 291 | > 16
isolate (source animal id): 292 | > 16
isolate (source animal id): 293 | > 16
isolate (source animal id): 294 | > 16
isolate (source animal id): 295 | > 16
isolate (source animal id): 296 | > 16
isolate (source animal id): 297 | > 16
isolate (source animal id): 298 | > 16
isolate (source animal id): 299 | > 16
isolate (source animal id): 300 | > 16
isolate (source animal id): 301 | > 16
isolate (source animal id): 302 | > 16
isolate (source animal id): 303 | > 16
isolate (source animal id): 304 | > 16
isolate (source animal id): 305 | > 16
isolate (source animal id): 306 | > 16
isolate (source animal id): 307 | > 16
isolate (source animal id): 308 | > 16
isolate (source animal id): 309 | > 16
isolate (source animal id): 310 | > 16
isolate (source animal id): 311 | > 16
isolate (source animal id): 312 | > 16
isolate (source animal id): 313 | > 16
isolate (source animal id): 314 | > 16
isolate (source animal id): 315 | > 16
isolate (source animal id): 316 | > 16
isolate (source animal id): 317 | > 16
isolate (source animal id): 318 | > 16
isolate (source animal id): 319 | > 16
isolate (source animal id): 320 | > 16
isolate (source animal id): 321 | > 16
isolate (source animal id): 322 | > 16
isolate (source animal id): 323 | > 16
isolate (source animal id): 324 | > 16
isolate (source animal id): 325 | > 16
isolate (source animal id): 326 | > 16
isolate (source animal id): 327 | > 16
isolate (source animal id): 328 | > 16
isolate (source animal id): 329 | > 16
isolate (source animal id): 330 | > 16
isolate (source animal id): 331 | > 16
isolate (source animal id): 332 | > 16
isolate (source animal id): 333 | > 16
isolate (source animal id): 334 | > 16
isolate (source animal id): 335 | > 16
isolate (source animal id): 336 | > 16
isolate (source animal id): 337 | > 16
isolate (source animal id): 338 | > 16
isolate (source animal id): 339 | > 16
isolate (source animal id): 340 | > 16
isolate (source animal id): 341 | > 16
